Laboratory results as given in PubChem BioAssay AID540256 (National Center for Advancing Translational Sciences (NCATS), 2011).
Values joined by “and” are separate entries in the source; they are usually repeats but may differ in a detail not shown here. Equal entries are not always repeated. About 3,700 (1.2%) of roughly 300,000 compounds were called active. The inconclusive results got no clear call from the source; some entries with a clear call stand among them for comparison. Calls follow the shape of the full dose curve; tested in HEK293 cells. A potency beside an inconclusive call is a rough fit, not a confirmed value.

Test: qHTS for Inhibitors of binding or entry into cells for Lassa Virus; also: nearly all actives have a fitted effect of over 50% in size
Conditions: Lassa virus pseudotype entry inhibition, cell reporter; activity change, negative = inhibition: at 37.9 µM (top of the series) unless noted
% is scaled to controls: 0 for no effect and ±100 for the full control effect; potency is read from the fitted curve at half-maximal effect.

Structure (SMILES)	activity change, negative = inhibition	Potency
COc1ccc(Nc2cc(C(=O)NC3CCCC3)c3ccccc3n2)cc1	inactive: -2.44% [at 46.1 µM]	
CCNc1nc(N)c(C(=O)c2ccc(Cl)s2)s1		inconclusive: 1 µM [activator, single point]
CN(C)CCN(C(=O)CN1C(=O)c2ccccc2C1=O)c1nc2cc3c(cc2s1)OCO3		inconclusive: 2.24 µM [activator, full curve, poor fit]
CCCCN(CC)S(=O)(=O)c1ccc(C(=O)N(CCCN(C)C)c2nc3cc(C)cc(C)c3s2)cc1		inconclusive: 35.5 µM [inhibitor, single point]
Cc1ccc(NC(=O)c2c(NC(=O)c3ccccc3Cl)sc3c2CCC3)cc1	inactive: 23.4% [at 46.1 µM]	
CCOc1c(O)ccc(/C=C2\SC(=S)NC2=O)c1[N+](=O)[O-]		inconclusive: 35.5 µM [inhibitor, partial curve, poor fit]
COc1ccc(NC(=O)c2cc([N+](=O)[O-])ccc2N2CCCCC2)cc1	inactive: -2.07% [at 46.1 µM]	
O=c1[nH]c(/C=C\c2cccs2)nc(O)c1[N+](=O)[O-]		inconclusive: 3.16 µM [inhibitor, single point]
Cc1nnsc1C(=O)Nc1ccc(Cl)cc1Cl	inactive: 4.12%	
N#C/C(=C\c1ccc(O)c([N+](=O)[O-])c1)c1nc2ccccc2s1		inconclusive: 15.8 µM [inhibitor, single point]
CC(C)=CCN1CCN(Cc2cc(C(C)C)n[nH]2)CC1CCO (stereo not given)		inconclusive: 3.16 µM [inhibitor, partial curve, poor fit]
Cc1ccc(N(C(=O)c2ccc3c(c2)OCO3)C2C=CS(=O)(=O)C2)cc1C (stereo not given)	inactive: -3.8%	
Cc1sc(=NC(=O)c2ccco2)n(C)c1-c1ccccc1		inconclusive: 9.2 µM [inhibitor, partial curve, poor fit]
COc1ccc(N2CCN(S(=O)(=O)c3ccc(-c4cnc(C5CC5)o4)cc3)CC2)cc1		inconclusive: 6.31 µM [inhibitor, single point]
Cc1c(CN2CCC(CO)(CCOc3ccccc3)CC2)[nH]c2ccc(Cl)cc12		inconclusive: 4.47 µM [inhibitor, full curve, poor fit]
COc1ccccc1-c1nn2c(=O)cc(CN3CCN(C(=O)/C=C/c4ccccc4)CC3)nc2s1		inconclusive: 4.47 µM [inhibitor, single point]
CCC1=NN2C(=N)/C(=C/c3c(C)nn(-c4ccccc4)c3Cl)C(=O)N=C2S1		inconclusive: 12.6 µM [inhibitor, single point]
Clc1cccc(CN2CCN(Cc3ccco3)CC2)c1		inconclusive: 0.891 µM [inhibitor, partial curve, poor fit]
CN(C)c1ccc(/C=C/C=C2/C(=O)NC(=O)N(c3ccccc3)C2=O)cc1		inconclusive: 11.2 µM [inhibitor, single point]
COc1ccc(-c2cc(C(=O)Nc3cc(OC)c(OC)c(OC)c3)no2)cc1OC		inconclusive: 6.51 µM [inhibitor, single point]
Cc1ccc(S(=O)(=O)N2CCCC2C(=O)N(C)Cc2cccs2)cc1 (stereo not given)		inconclusive: 36.6 µM [inhibitor, partial curve, poor fit]
Cc1cc(N2CCN(C)CC2)nc2ccc(NC(=S)N3CCCCC3)cc12		inconclusive: 10 µM [inhibitor, partial curve, poor fit]

Structure (SMILES)	activity change, negative = inhibition	Potency
CC1CN(S(=O)(=O)c2cccc3cnccc23)CCN1 (stereo not given)		inconclusive: 0.146 µM [inhibitor, full curve, poor fit]
CCN1CCN(c2cc(C)c3cc(NC(=S)NCCCN4CCc5ccccc5C4)ccc3n2)CC1	inactive: -24%	
COc1ccc(CNC(=O)C2CCCN(S(=O)(=O)c3c(C)n[nH]c3C)C2)cc1 (stereo not given)		inconclusive: 29.1 µM [inhibitor, single point]
COc1ccc(C2C(C(=O)Nc3ccc(C)cc3C)=C(C)Nc3nc(SCc4cccc(C)c4)nn32)c(OC)c1 (stereo not given)	inactive: -24.1% [at 46.1 µM]	
COc1ccccc1-c1ccc(SCC(=O)NC2CCCC2)nn1	inactive: -0.731%	
CC(C)(C)c1ccc(C(=O)/C=C2\NC(=O)CS2)cc1		inconclusive: 12.6 µM [inhibitor, single point]
CCOc1ccc2nc(SCC(=O)NCc3ccco3)sc2c1	inactive: -1.84%	
COc1ccc(S(=O)(=O)c2nnn(-c3ccc(C(C)C)cc3)c2C)cc1	inactive: 6.22% [at 46.1 µM]	
CCCCCCOC(=O)c1ccc(NC(=O)c2cc(OC)c(OC)c(OC)c2Br)cc1		inconclusive: 17.8 µM [inhibitor, partial curve, poor fit]
CC(C)CC(c1nnnn1Cc1cccs1)N1CCN(c2nc3ccccc3s2)CC1 (stereo not given)		inconclusive: 7.94 µM [inhibitor, partial curve, poor fit]
CCOC(=O)C1=C[C@]2(CC)CCCN3CCc4c(n1c1ccccc41)[C@@H]32		inconclusive: 29.1 µM [inhibitor, single point] and inconclusive: 3.66 µM [inhibitor, full curve]
Nc1nc(-c2ccccc2)[nH]c(=O)c1N	inactive: 5.4%	
CCOC(=O)N(CC)c1ccc(C(O)(C(=O)OC)C(F)(F)F)cc1 (stereo not given)		inconclusive: 23.1 µM [inhibitor, single point]
COc1ccccc1CCN1CCCC(CN(C)C(=O)CCC(=O)N(C)C)C1 (stereo not given)		inconclusive: 12.6 µM [activator, single point]
O=C(CNc1ccccc1)N/N=C/c1ccc2c(c1)OCO2	inactive: -4.42%	
c1ccc(CNc2nc3ccccc3n2CCN2CCOCC2)nc1		inconclusive: 0.092 µM [inhibitor, full curve, poor fit]
COc1ccc(NC(=O)COC(=O)CCCc2c[nH]c3ccccc23)cc1		inconclusive: 1.64 µM [inhibitor, partial curve, poor fit]
CCc1ccc(OCCCC(=O)Nc2nccs2)cc1	inactive: 6.13%	
CCOC(=O)c1sc2nc(CSc3ccccc3)[nH]c(=O)c2c1C		inconclusive: 2 µM [inhibitor, full curve, poor fit]
CCCCCn1c(CNC(=O)c2ccccc2)nc2ccccc21		inconclusive: 3.55 µM [activator, single point]
Cc1ccc(NC(=O)NCc2ccc3c(c2)OCO3)cc1	inactive: 6.67%	
CCN(CC)c1ccc(-n2nc3cc(C)c(NC(=O)c4ccccc4C)cc3n2)c(C)c1		inconclusive: 3.55 µM [inhibitor, full curve, poor fit]

Structure (SMILES)	activity change, negative = inhibition	Potency
CCOc1ccc(NC(=O)Cn2c(=O)n(CCCCC(=O)NCc3ccc4c(c3)OCO4)c(=O)c3ccccc32)cc1		inconclusive: 35.5 µM [inhibitor, single point]
O=C(CSc1nc(-c2ccco2)cc(C(F)(F)F)n1)N1CCN(c2ccc(Cl)cc2)CC1		inconclusive: 15.8 µM [inhibitor, single point]
COCC(=O)Nc1cc(C(=O)OC)cc(C(=O)OC)c1		inconclusive: 5.62 µM [activator, single point]
CN1CCN(CC(=O)Nc2nc(-c3ccccc3)cs2)CC1	inactive: -25.7%	
CN(C)C(CNC(=O)c1coc2ccccc2c1=O)c1ccccc1 (stereo not given)		inconclusive: 14.1 µM [inhibitor, single point]
S=C(Nc1ccc(Cl)cc1)NC1CCCCC1		inconclusive: 17.8 µM [inhibitor, single point]
O=C(CCc1ccc(S(=O)(=O)N2CCOCC2)cc1)NN=C1CCCCCCC1		inconclusive: 8.2 µM [inhibitor, partial curve, poor fit]
Cc1cccn2c(=O)c(C=O)c(Nc3ccc(S(N)(=O)=O)cc3)nc12		inconclusive: 0.316 µM [inhibitor, partial curve, poor fit]
CCOc1ccc(-n2c(SCC(=O)Nc3cc(OC)c([N+](=O)[O-])cc3C)nc3ccccc32)cc1		inconclusive: 0.891 µM [inhibitor, full curve, poor fit]
CCOC(=O)c1ccc2nc(C)c(C)nc2c1		inconclusive: 17.8 µM [activator, single point]
O=C(c1cnccn1)N1CCc2ccccc21	inactive: 17.3%	
COc1ccc(C2=CC(=O)OC(C)(c3ccccc3)O2)cc1 (stereo not given)		inconclusive: 11.6 µM [inhibitor, partial curve, poor fit]
C[C@]12CC[C@@H]3c4ccc(O)cc4CC[C@H]3[C@@H]1CCC2=O		inconclusive: 29.1 µM [inhibitor, single point]
CCCCCC(=O)Nc1sc(C)c(C)c1C#N		inconclusive: 9.2 µM [inhibitor, partial curve]
CCCCOC(=O)CSc1nnc(-c2ccccc2)o1		inconclusive: 0.891 µM [inhibitor, full curve, poor fit]
CCn1c(C)cc(C(=O)CSc2nnnn2C2CCCC2)c1C		inconclusive: 6.31 µM [activator, single point]
Cc1ccc(NC(=O)C2=C(O)c3ccccc3N(C)S2(=O)=O)cc1	inactive: -2.08%	
N#Cc1c(NC(=O)c2ccccc2F)sc2c1CCCC2		inconclusive: 1.58 µM [activator, partial curve, poor fit]
CCOC(=O)c1cc([N+](=O)[O-])sc1NC(=O)c1ccc(S(=O)(=O)N2CC3(C)CC2CC(C)(C)C3)cc1 (stereo not given)		inconclusive: 2.82 µM [inhibitor, partial curve, poor fit]
COC(=O)c1ccc(Cl)cc1NC(=O)N1CCCn2nc(C)cc21		inconclusive: 12.6 µM [activator, single point]
COc1cc(OC)c(NC(=O)CCCn2nc(C)c3sc4ccccc4c3c2=O)cc1Cl		inconclusive: 17.8 µM [inhibitor, single point]

Among those listed so far, 3 contain a cyano group.
Structure (SMILES)	activity change, negative = inhibition	Potency
N#C/C(=C\c1ccc(O)c([N+](=O)[O-])c1)c1nc2ccccc2s1		inconclusive: 15.8 µM [inhibitor, single point]
CCCCCC(=O)Nc1sc(C)c(C)c1C#N		inconclusive: 9.2 µM [inhibitor, partial curve]
N#Cc1c(NC(=O)c2ccccc2F)sc2c1CCCC2		inconclusive: 1.58 µM [activator, partial curve, poor fit]
